Hit rate of the full screen: of about 320,000 compounds, about 22,000 (6.9%) were called active. Inconclusive means that the source gave no clear call. Such entries were picked first, then a sample of the others. Calls come from the whole dose curve; as a rule, active = well fitted inhibition curve with a large enough effect; inconclusive = small, poorly fitted or top-dose-only effect, or another doubt; inactive = no such curve, though single readings can be large or run the other way. Where the call is inconclusive, the potency comes from a doubtful curve fit.
Experiment: Primary qHTS for delayed death inhibitors of the malarial parasite plastid, 96 hour incubation
Settings: P. falciparum luciferase reporter growth; series mostly up to 28.7 µM
How it was run: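 P. falciparum expressing integrated firefly luciferase grown in erythrocytes (2% hematocrit, 0.05% parasitemia final) with compounds for 96 hours at 37 C, 5% CO2. Growth inhibition read as loss of luminescence after adding luciferase detection reagent.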
In the case of `Cc1ccc(NC(=O)CN2C(=O)NC3(CCCC3)C2=O)cc1S(=O)(=O)N1CCCCC1`, the Potency is reported as inconclusive: 10.4 µM [inhibitor, partial curve, poor fit]. For `C=C(Br)Cn1c(CCCC)nc2ccccc21`, the Potency was inconclusive: 9.28 µM [inhibitor, partial curve]. In the case of `C/C(CC(=O)Nc1cccnc1)=N/NC(=O)COc1ccc(Cl)cc1Br`, the Potency is reported as inconclusive: 20.8 µM [inhibitor, partial curve, poor fit]. With `COC(=O)CNC(=O)c1cc(-c2ccncc2)nc2ccccc12` the Potency was “inactive”. With `O=S(=O)(Nc1cccc2ncccc12)c1cccs1` the Potency was inconclusive: 18.5 µM [inhibitor, single point]. For `CCNc1ccc(S(=O)(=O)C(F)(F)F)cc1NC(=O)C12CCC(CC1)C2`, the Potency was inconclusive: 2.62 µM [inhibitor, partial curve]. In the case of `C/C(=N\N=C(N)N)c1cccc(Cl)c1`, the Potency is reported as inconclusive: 20.8 µM [inhibitor, single point]. In the case of `O=C(CCC1CCCN(C(=O)c2ccsc2)C1)NCc1ccc(F)c(F)c1` (stereo unspecified), the Potency is reported as inconclusive: 1.65 µM [inhibitor, partial curve]. For `C=CCNC(=O)c1ccc(Cn2cc(C(F)(F)F)ccc2=O)cc1`, the Potency was “inactive”. With `N#Cc1c(-c2ccccc2)cc(-c2ccccc2)nc1SCCC(=O)O` the Potency was inconclusive: 11.7 µM [inhibitor, single point]. For `COC(=O)C1C=C2c3cccc4[nH]cc(c34)CC2N(C)C1` (stereo unspecified), the Potency was inconclusive: 9.28 µM [inhibitor, partial curve, poor fit]. In the case of `Cc1ccc(NC(=O)c2ccccc2OCC(=O)c2ccc(F)cc2)cc1`, the Potency is reported as “inactive”. With `Cc1cc(C)c(C(=O)COC(=O)Cn2cnnn2)cc1C` the Potency was “inactive”. In the case of `Cc1ccc(-n2ncc3c2CC(C)(C)CC3NC(=O)CCc2c(C)noc2C)cc1` (stereo unspecified), the Potency is reported as inconclusive: 18.5 µM [inhibitor, single point]. For `CN(CCc1ccccn1)Cc1ccc(Cl)cc1Cl`, the Potency was “inactive”. With `CCC(C)c1ccccc1N1CC(C(=O)Nc2ccccc2N2CCCC2)CC1=O` (stereo unspecified) the Potency was inconclusive: 14.7 µM [inhibitor, partial curve, poor fit]. In the case of `COc1cccc(C(=O)NC2CCCc3c2cnn3-c2cc(C)cc(C)c2)c1` (stereo unspecified), the Potency is reported as inconclusive: 18.5 µM [inhibitor, single point]. For `CCN1C(=O)C(CC(=O)Nc2ccc(Cl)cc2)N(NC(=O)c2ccncc2)C1=S` (stereo unspecified), the Potency was inconclusive: 9.28 µM [inhibitor, single point]. With `CCOC(=O)c1cc(-c2ccc(F)cc2)n(CCC(=O)NC2CCN(Cc3ccccc3)CC2)c1C` the Potency was inconclusive: 18.5 µM [inhibitor, single point]. With `O=C(NC1CCCC1)c1cc2nc(-c3ccccc3)cc(-c3ccccc3)n2n1` the Potency was inconclusive: 11.7 µM [inhibitor, partial curve, poor fit]. For `CCOc1ccc(NC(=O)COC(=O)C2(C)CC2(Cl)Cl)c([N+](=O)[O-])c1` (stereo unspecified), the Potency was inconclusive: 10.4 µM [inhibitor, single point]. For `O=c1[nH]c(NNC(=S)NCc2ccccc2)nc2c1C1(CCCCC1)Cc1ccccc1-2`, the Potency was inconclusive: 18.5 µM [inhibitor, single point]. With `C=CCOc1ccc(C2CC(C)=NN2c2ccccc2)cc1` (stereo unspecified) the Potency was “inactive”. With `Cc1sc2nc(SCC(=O)NCCO)n(C)c(=O)c2c1C` the Potency was active: 9.28 µM. With `O=C(Nc1cnccn1)c1ccncc1` the Potency was “inactive”. With `COc1ccc(/C(N)=N/OC(=O)CCC2CCCC2)cc1OC` the Potency was inconclusive: 1.04 µM [inhibitor, full curve]. For `COc1ccc(N(CC(=O)N2CCN(c3ccc(Cl)cc3)CC2)S(=O)(=O)c2c(C)noc2C)cc1`, the Potency was inconclusive: 11.7 µM [inhibitor, single point]. With `Brc1c(-c2ccccc2)nc2n1Cc1ccccc1-2` the Potency was “inactive”. For `Cc1ccc([N+](=O)[O-])cc1N/C=C1\CCCCC1=O`, the Potency was “inactive”. For `O=[N+]([O-])c1ccccc1S(=O)(=O)N1CCCC(C(F)(F)F)C1` (stereo unspecified), the Potency was active: 0.828 µM. In the case of `CC(=O)Nc1ccc(CCc2nc3ccccc3[nH]2)cc1`, the Potency is reported as inconclusive: 1.65 µM [inhibitor, partial curve]. In the case of `Cc1noc(NS(=O)(=O)c2ccc(NC(=O)C34CCC(CC3)C4)cc2)c1C`, the Potency is reported as “inactive”. In the case of `Cc1ccc(C(=O)N/C(=C\c2cccs2)C(=O)NCCc2c[nH]c3ccccc23)cc1C`, the Potency is reported as inconclusive: 10.4 µM [inhibitor, single point]. In the case of `CC1Cc2ccccc2N1C(=O)CSc1nc(-c2ccccc2)cs1` (stereo unspecified), the Potency is reported as active: 10.4 µM. With `Cc1ccc(C(=O)NC2CCC(C)CC2)s1` (stereo unspecified) the Potency was “inactive”. For `C=CCNC(=O)C1CC(=O)N(c2ccc(OCC(=O)Nc3ccc(CC)cc3)cc2)C1` (stereo unspecified), the Potency was inconclusive: 18.5 µM [inhibitor, single point]. In the case of `COc1ccc(Br)cc1/C=N/NC(=O)CN1CCCCC1`, the Potency is reported as inconclusive: 18.5 µM [inhibitor, single point]. In the case of `Fc1ccc(NCc2cn3ccccc3n2)cc1`, the Potency is reported as “inactive”. In the case of `CC1=C(C(=O)OC(C)C)C(c2ccc3c(c2)OCO3)NC(=O)N1` (stereo unspecified), the Potency is reported as inconclusive: 1.17 µM [inhibitor, partial curve, poor fit]. With `CCOC(=O)CC(c1ccc(N)cc1)n1c(C)ccc1C` (stereo unspecified) the Potency was inconclusive: 18.5 µM [inhibitor, single point]. For `O=C(CSc1nc(C(F)(F)F)cc(=O)[nH]1)Nc1nccs1`, the Potency was “inactive”. For `CC(C)CCNC(=O)NC(=O)COc1c(F)c(F)cc(F)c1F`, the Potency was inconclusive: 0.0657 µM [inhibitor, partial curve, poor fit]. For `Fc1ccc(NC(=S)NCc2cccs2)cc1`, the Potency was “inactive”. For `COc1ccc(OCCSc2ccc(S(=O)(=O)N3CCCC3)cn2)cc1`, the Potency was inconclusive: 18.5 µM [inhibitor, single point]. With `CCOC(=O)C1C2NC(=O)N(Cc3ccccc3)C1(C)Oc1c(OC)cccc12` (stereo unspecified) the Potency was inconclusive: 8.28 µM [inhibitor, single point]. With `COc1c(N2CCN(C(=S)Nc3ccccc3F)C(C)C2)c(F)cc2c(=O)c(C(=O)O)cn(C3CC3)c12` (stereo unspecified) the Potency was inconclusive: 0.738 µM [inhibitor, full curve]. With `O=C(CCNS(=O)(=O)c1cccc2nsnc12)NCc1cccs1` the Potency was inconclusive: 11.7 µM [inhibitor, single point]. With `CC(=O)Nc1cccc(NC(=O)c2ccc([N+](=O)[O-])cc2Cl)c1` the Potency was “inactive”. For `C=CCN(c1cccc(C(F)(F)F)c1)S(=O)(=O)c1cccc(C(=O)OCC(=O)Nc2ccccc2)c1`, the Potency was inconclusive: 14.7 µM [inhibitor, partial curve, poor fit]. In the case of `O=S(=O)(NCCSc1ccccn1)c1ccc(Cl)cc1`, the Potency is reported as inconclusive: 18.5 µM [inhibitor, single point]. With `CCC(=O)Nc1ccc(C(=O)n2nc(C)cc2C)cc1` the Potency was “inactive”. For `Cc1cc(OCC(=O)Nc2ccc(N3CCCC3)cc2)cc(C)c1Cl`, the Potency was inconclusive: 18.5 µM [inhibitor, single point]. With `CCc1cc(C(=O)N2CCCC(C(=O)c3ccc(OC)c(F)c3)C2)n(C)n1` (stereo unspecified) the Potency was inconclusive: 11.7 µM [inhibitor, single point]. With `CCOC(=O)N1CCN(C(=O)C2CCN(S(=O)(=O)c3c(C)cc(C)cc3C)CC2)CC1` the Potency was inconclusive: 13.1 µM [inhibitor, partial curve, poor fit]. In the case of `O=C(Nc1ccc2ccccc2c1)Nc1ccc2snnc2c1`, the Potency is reported as active: 4.65 µM. With `Nc1c(C(=O)Nc2ccc(Cl)cc2)sc2nc(N3CCOCC3)c3c(c12)CCCC3` the Potency was inconclusive: 4.65 µM [inhibitor, partial curve]. In the case of `CC(c1ccccc1)C(CC(=O)O)C(=O)Nc1ccc(Cl)c(Cl)c1` (stereo unspecified), the Potency is reported as inconclusive: 6.57 µM [inhibitor, partial curve]. With `O=C(Nc1cccc(-c2nc3cccnc3s2)c1)c1ccc(Cl)nc1` the Potency was inconclusive: 18.5 µM [inhibitor, single point]. In the case of `COC(=O)CCCCCN1C(=O)/C(=C\c2ccncc2)SC1=S`, the Potency is reported as inconclusive: 2.33 µM [inhibitor, partial curve, poor fit]. With `Cc1ccc(-c2csc3ncnc(SCC(=O)O)c23)cc1` the Potency was “inactive”. In the case of `CN(C(=O)CCN1C(=O)/C(=C/c2ccccc2F)SC1=S)C1CCS(=O)(=O)C1` (stereo unspecified), the Potency is reported as “inactive”. For `Cc1ccc(NC(=O)CC2C(=O)N(Cc3ccccc3)C(=S)N2NC(=O)c2cccc(F)c2)c(C)c1` (stereo unspecified), the Potency was inconclusive: 18.5 µM [inhibitor, single point]. For `Cc1ccc(O)c(-c2cc(-c3cccc(Br)c3)n[nH]2)c1`, the Potency was “inactive”. For `O=C(CCn1cnnn1)Nc1ccc(Cl)cc1Cl`, the Potency was inconclusive: 11.7 µM [inhibitor, single point]. With `Cc1[nH]c2ccccc2c1/C=N/NC(=O)CNC(=O)Cc1ccccc1` the Potency was inconclusive: 1.17 µM [inhibitor, partial curve, poor fit]. With `CCOCCCN1CN(Cc2ccccc2)CNC1=S` the Potency was inconclusive: 2.08 µM [inhibitor, full curve]. For `CCc1ccc(NC(=O)CNS(=O)(=O)c2c(C)noc2C)cc1`, the Potency was inconclusive: 13.1 µM [inhibitor, partial curve, poor fit]. For `O=C(CCC1CCCN(C(=O)c2ccc3c(c2)OCCO3)C1)NCc1ccccc1F` (stereo unspecified), the Potency was inconclusive: 2.94 µM [inhibitor, partial curve, poor fit]. For `Cc1ccc2c(N)[nH]nc2n1`, the Potency was “inactive”. In the case of `COc1cc(C(=O)NCC(=O)Nc2ccc(F)c(F)c2)ccc1OCC(=O)N1CCOCC1`, the Potency is reported as “inactive”. For `CN(Cc1nc(Cc2ccccc2F)no1)[C@@H]1CS(=O)(=O)C[C@H]1O`, the Potency was active: 11.7 µM.
Potency is the fitted concentration of half-maximal effect.
